Measurements published in article PMC11015564.

Assays:
Assay in all cases: EMSA
Settings in all cases: LightShift Chemiluminescent EMSA Kit (Thermo) per manufacturer; pH and temperature not stated; recombinant protein; protein details: His (pET-28a); probe letters rebuilt from the primers and the genome
[1] = biological target: BbOsrR1 DNA-binding domain (Beauveria bassiana) (UniProt J4KQN9)
[2] = biological target: BbOsrR2 DNA-binding domain (Beauveria bassiana) (UniProt J5JXE0)
[3] = biological target: BbOsrR3 DNA-binding domain (Beauveria bassiana) (UniProt J5K4G2)

Sequence	binding result [1]	binding result [2]	other results
AAGATCATCCGCTAATCTCGCATCTTTCTTTTCTTCTGCGTCTTTTTCTTCAGACGCAATCAGCTTGTCCCGCTTCCTCCGCCCTGGTTCGTCGCCCCCCGCCTCGCACCAGAGACTCGCAGGGCAACCACGCACGTTGGGCCCCTCTCCCCTCTCTCGTTCACCGAGAAGGAAAAAAAAAAAAAATCACACACCCTCCCAGCGCTCGCATGACGATGAAATGGCAGCAGTAATTGGCGACTTCGTAACCGATCTCTCACGATTCCATAATATGATTACAAGCTCGTCGTC (double strand) [BbClp1 promoter WT]	binds		
CCCCCCTTCCACATCCACTCATCATCCACTCCTCCTCATCCACTCCTCCTCCCACTCCCACTCTCACTCCCACTCCATCTTTCCGCCTCTTCCCTTCCTCTCCTCCCATTATTTTGTCCATCTAGCAAAGGCGTCCAACACTGTCTGTCGACACCCGGATCGGACATTTCCTCCTCTCTTCCTCAATCATCCCTCTCCGGAATATGCGTTGGCAGTAGCGGCCCTTTTTTTCACTTCGTCTTTTCTTCTTCTTCTTCCTCCTCCTCTTCTTCTACT (double strand) [Msg5 promoter WT]		binds	
GGAGCGTGGGAGCGTGGGAGGGAGGGAGCAAGGCCGTGTGTCGCAGAGAAACAAACCAGGTTTGGATTGGGAAAAAGGTTGGGGGTTAATTTTGATGCGGATGGGCAGGAGCAGGTGGGCGGGCAGGTCTTTCTGTATTCAGTCTGGTGTGGTCAGTCGTCAGTGGGCAATGGGCATTGGCATCAAGCATGTAGGCAGGCAGGCAGGCAGGCAGACAGGCAGGCAAGCAAGTAACGAGTCGTTTGGTGAGGGGGG (double strand) [Mcm1 promoter WT]		binds	
ATCGCCAAATACGGTTTTGCGAGAGTCAACTTTGCCAGAGCTTCCTACAGCTGCGAGACGAATATCCAACAGCGGCTCCAAGAAAATTTACCCCGTAGGTCCACTTGTTGGTCCAGTGCCTGCTTGCGCCGGCGGTTACCTCCTGCATCCAGCATTGGCCCTTTTAAGTTTGTGCCTCAACTGCGACACGCGCCAGGAGCAGTCAGCTTCGCCCCTCGCGAAGCGTTGTACCAAAAGTCTCCCAAAGCTAGCGGCATTGACAGATCGGCGAGGACCAGGCCCG (double strand) [Fus3 promoter WT]			binding result [3]: binds
TGCTGGCTAGGGTCCGGGGTGTGTGTTTTTTTTGGCCGGATTAAAATGAGGAAGAAGCCTTGCTATGGAGCCAAGTGTCGACATGGGCGAAGAAGCAAAAAAAAAAGGGCCGTTGTCTAGAAAACACTAGAGCAACACCACCACGAGCAGAATATGGTTATTAGAAAAAAATTAAAGTGGACGCCGGCGAAGAATTTAAAGAATTAGAAAAAAAAAGCAGTGATTACAACGGCAAGAATGAAAAAAAAAAACGATTGGAGGACCCTTTGACCTACGGGCCAGTGCAAAGGGGATTGCCGGTGAGATGGCTGGCGCCCGAGTTTCGTGGTGGTAATGAATTGTCGAGATGACGATGTAGCAAAGAAGAGGAAGAGAGAAAAAAAGGCCCAGCGACCTTGACTTGGTTTGAGGCCTGCATATTCTTTTTTTTTTTGGGCTGCTAGCCCGGCTAGGCTATTTAGGTAGGTAGGTAGAGACCTTAACTACCTAGCGCCGAGTCT (double strand) [BbOsrR2 promoter WT]	binds		

The exact form of at least one protein or probe is not confirmed.
